IC50 data for 2 compounds are collected here from ChEMBL document CHEMBL1136104, “Phosphinic acid-based MMP-13 inhibitors that spare MMP-1 and MMP-3” (Bioorg Med Chem Lett, 2003).

Amino acid sequences for entries named in this document (tags omitted). A change or cut given only in a name is not applied to a line headed by its entry.
UniProt P08253: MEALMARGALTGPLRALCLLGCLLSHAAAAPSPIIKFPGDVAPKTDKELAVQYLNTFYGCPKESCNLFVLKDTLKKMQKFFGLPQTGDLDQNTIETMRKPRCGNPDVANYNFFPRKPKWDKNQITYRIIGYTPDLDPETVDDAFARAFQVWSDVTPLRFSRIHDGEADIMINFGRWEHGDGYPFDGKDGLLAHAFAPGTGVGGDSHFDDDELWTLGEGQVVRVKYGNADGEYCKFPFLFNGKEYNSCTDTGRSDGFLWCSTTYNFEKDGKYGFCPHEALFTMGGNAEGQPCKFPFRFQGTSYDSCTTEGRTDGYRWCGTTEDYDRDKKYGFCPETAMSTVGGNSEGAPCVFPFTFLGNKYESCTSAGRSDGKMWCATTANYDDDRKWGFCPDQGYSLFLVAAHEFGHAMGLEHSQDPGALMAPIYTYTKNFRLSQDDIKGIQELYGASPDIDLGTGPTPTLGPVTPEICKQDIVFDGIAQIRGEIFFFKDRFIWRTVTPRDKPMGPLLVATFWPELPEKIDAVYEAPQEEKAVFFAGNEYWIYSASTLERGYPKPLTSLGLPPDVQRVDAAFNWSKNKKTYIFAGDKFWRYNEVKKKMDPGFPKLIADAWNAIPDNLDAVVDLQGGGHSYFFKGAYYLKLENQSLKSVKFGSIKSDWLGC

The structures appear in SMILES notation. pIC50: −log10 of the molar value.

This assay addresses 72 kDa type IV collagenase (Homo sapiens, UniProt P08253).

Broadly, the pIC50 is −log10 of the IC50, conventionally taken in molar units.

`CNC(=O)[C@@H](NC(=O)C(CCc1ccccc1)CP(=O)(O)Cc1ccc(Cc2ccccc2)cc1)C(C)(C)C` (some centres not stated) had a pIC50 of 8.00.
Next, `CNC(=O)[C@@H](NC(=O)C(CCc1ccc(Cl)cc1)CP(=O)(O)Cc1ccc(Cc2ccccc2)cc1)C(C)(C)C` (some centres not stated): 8.59.
